Measurements from paper doi:10.1101/2020.09.11.292599.
Results are given in words; binding and its absence hold for the method and conditions named. Binding seen in cells or lysates may run through a third protein. Here binding means that the protein was enriched with, or labelled near, the bait; the list need not be complete.

B1: 2,3-bisphosphoglycerate-independent phosphoglycerate mutase (PGAM, Slr1945), endogenous (enzyme, UniProt P74507 1-532)
chain: MAEAPIAPVVLVILDGWGYRPDTRANAIAQANTPIMDSLIAAYPNTLVNTSGKDVGLPKGQMGNSEVGHLNLGAGRVVPQELVRISDAIEDGTFFDNQALIEVCQRVRDRRGKLHLIGLCSDGGVHSHIDHLLGLIDLAKLQGISQLCIHAITDGRDTPTNEGAHFVQQIQAHLEKIGLGRIVSVSGRYYALDRDRRWDRVEKAYRVMTEDGVGDGRSAAQVIKDYYASDITDEFIPPTRIGAGAIASGDGVIFYNFRPDRARQLCYALVNPSFDGFPRERIQPLDFVTFTQYDPALPVVVAFEPQNLNNILGEIISRQGMKQFRTAETEKYPHVTYFFNGGLEQPFAGEDRELIQSPMVSTYDKAPQMSAKAVTDAVCRAMEKGIYSLVVVNYANPDMVGHTGKLKEAIQAIETVDLNLGRLLASAAKVGGTVLITADHGNAEYMSDESGNPWTAHTTNPVPFILVEGEGRKIPGHGGEVKLREGGKLADIAPTILDILQLPVPAEMTGKTLIDQPLVEIKANRTPVNLSR
B2: CcmP (Slr0169), endogenous (protein, UniProt Q55550 1-213)
chain: MGIELRSYVYLDSLQSQHAAYIGTVASGFLPLPGDCSLWVEVSPGIEINRITDIALKAAVVRPGVLFVERLYGLLEIHASNQGEVRAAGQAILAYIGAKASDCIKPKVVSSQIIRNIDAYQTQLINRNRRGHMLLAGQTLFVLEVQPAAYASLAANEAEKSASINILQVSSIGSFGRLYLGGEERDIKAGARAAIAAIENAPGKVPTLEGKNE

Target: T1, PirC-mCitrine (Synechocystis sp. PCC 6803) (UniProt P77971)
T1 sequence: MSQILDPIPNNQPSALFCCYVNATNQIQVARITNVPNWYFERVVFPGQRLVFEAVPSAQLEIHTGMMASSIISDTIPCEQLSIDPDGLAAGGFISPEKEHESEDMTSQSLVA
Assay: affinity purification with mass spectrometry

Binder | binding
B1 | binds
B2 | binds
